No constants are given. Whether binding was seen depends on the method and setting. In cells and extracts the contact can be indirect. Here binding means that the protein was enriched with, or labelled near, the bait; the list need not be complete.
B1: Neurofilament medium polypeptide (protein, UniProt P08553 1-848)
chain: MSYTLDSLGNPSAYRRVTETRSSFSRVSGSPSSGFRSQSWSRGSPSTVSSSYKRSALAPRLAYSSAMLSSAESSLDFSQSSSLLNGGSGGDYKLSRSNEKEQLQGLNDRFAGYIEKVHYLEQQNKEIEAEIQALRQKQASHAQLGDAYDQEIRELRATLEMVNHEKAQVQLDSDHLEEDIHRLKERFEEEARLRDDTEAAIRALRKDIEESSMVKVELDKKVQSLQDEVAFLRSNHEEEVADLLAQIQASHITVERKDYLKTDISTALKEIRSQLECHSDQNMHQAEEWFKCRYAKLTEAAEQNKEAIRSAKEEIAEYRRQLQSKSIELESVRGTKESLERQLSDIEERHNHDLSSYQDTIQQLENELRGTKWEMARHLREYQDLLNVKMALDIEIAAYRKLLEGEETRFSTFSGSITGPLYTHRQPSVTISSKIQKTKVEAPKLKVQHKFVEEIIEETKVEDEKSEMEETLTAIAEELAASAKEEKEEAEEKEEEPEAEKSPVKSPEAKEEEEEGEKEEEEEGQEEEEEEDEGVKSDQAEEGGSEKEGSSEKDEGEQEEEEGETEAEGEGEEAEAKEEKKIEGKVEEVAVKEEIKVEKPEKAKSPMPKSPVEEVKPKPEAKAGKGEQKEEEKVEEEKKEVTKESPKEEKVEKKEEKPKDVADKKKAESPVKEKAVEEVITISKSVKVSLEKDTKEEKPQPQEKVKEKAEEEGGSEEEGSDRSPQESKKEDIAINGEVEGKEEEEQETQEKGSGREEEKGVVTNGLDVSPAEEKKGEDSSDDKVVVTKKVEKITSEGGDGATKYITKSVTVTQKVEEHEETFEEKLVSTKKVEKVTSHAIVKEVTQGD
B2: Ras-related protein Rab-33A (protein, UniProt P97950 1-237)
chain: MAQPILGHGSLQPASAAGLASLELDSSMDQYVQIRIFKIIVIGDSNVGKTCLTFRFCGGTFPDKTEATIGVDFREKTVEIEGEKIKVQVWDTAGQERFRKSMVEHYYRNVHAVVFVYDVTKMTSFTNLKMWIQECNGHAVPPLVPKVLVGNKCDLREQIQVPSNLALKFADAHNMLLFETSAKDPKESQNVESIFMCLACRLKAQKSLLYRDAERQQGKVQKLEFSQEANGKASCPC
B3: Ubiquitin-protein ligase E3B (enzyme, UniProt Q9ES34 1-1070)
chain: MFTVSQTSRAWFIDRARQAREERLVQKERERSAVTIQALVRSFLCRRRLHRDIRKEIDEFFSADESGSSKRSALCIFKIARRLLFICKTTEDSERLEKLCRSILNSMDAENEPKVWYVSLALSKDLTLLWIKQIKSILWHCCELLGQLKPEILQDSRLITLYLTMLVTFTDTSTWKILRGKGESLRPALNHICANIMGHLNQRGLYSVLQVLLTRGLARPRPCLSKGMLTAAFSLALRPVVAAQFSDNLMRPFIIHVMSVPALVAHLSTVAPERLGVLESHDMLRKFIVFLRDRDRCRDACESLEGCHTLCLMGNLLHLGSLSLRLLEEEMDGFVSALTQMLCYCQKYVAQKKSNLTHWHPVLGWFSQPVDYGLNDSMYLITKQLQFLWAVPLIRILFSDILSRKLLEHAEPAPVQPQPSSPQTVLPVKSLLKRAFQKSASVRNILRPVGGRRVDSAEVRKVCNICVLYQTSLTTLTQIRLQILTGLTYLDDLLPKLWAFICELGPHGGLKLFLECLNNDTGESKQLLAMLMLFCDCSRHLITILDDIEVYEEQISFKLEELVTISSFLNSFVFKMIWDGIVENAKGETLELFQSVHGWLMVLYERDCRRRFAPEDHWLRRDLKPGVLFQELDKDRRRAQLVLQHIPHVVPHKNRVLLFRNMVIKEKEKLGLVETSSASPHVTHITIRRSRMLEDGYEQLRQLSQHAMKGVIRVKFVNDLGVDEAGIDQDGVFKEFLEEIIKRVFDPALNLFKTTSGDERLYPSPTSYIHENYLQLFEFVGKMLGKAVYEGIVVDVPFASFFLSQMLGHHHSVFYSSVDELPSLDSEFYKNLTSIKRYDGDIADLGLTLSYDEDVMGQLVCHELVPGGKTIPVTDENKISYIHLMAHFRMHTQIKNQTAALISGFRSIIKPEWIRMFSTPELQRLISGDNAEIDLEDLKKHTVYYGGFHGSHRVIIWLWDILASDFTPEERAMFLKFVTSCSRPPLLGFAYLKPPFSIRCVEVSDDQDTGDTLGSVLRGFFTIRKREPGGRLPTSSTCFNLLKLPNYSKKSVLREKLRYAISMNTGFELS
B4: Ywhag (protein, UniProt P61982 1-247)
chain: MVDREQLVQKARLAEQAERYDDMAAAMKNVTELNEPLSNEERNLLSVAYKNVVGARRSSWRVISSIEQKTSADGNEKKIEMVRAYREKIEKELEAVCQDVLSLLDNYLIKNCSETQYESKVFYLKMKGDYYRYLAEVATGEKRATVVESSEKAYSEAHEISKEHMQPTHPIRLGLALNYSVFYYEIQNAPEQACHLAKTAFDDAIAELDTLNEDSYKDSTLIMQLLRDNLTLWTSDQQDDDGGEGNN
B5: Alpha-internexin (protein, UniProt P46660 1-501)
chain: MSFGSEHYLCSASSYRKVFGDSSRLSARLSGPGGSGSFRSQSLSRSNVASTAACSSASSLGLGLAYRRLPASDGLDLSQAAARTNEYKIIRTNEKEQLQGLNDRFAVFIEKVHQLETQNRALEAELAALRQRHAEPSRVGELFQRELRELRAQLEEASSARAQALLERDGLAEEVQRLRARCEEESRGREGAERALKAQQRDVDGATLARLDLEKKVESLLDELAFVRQVHDEEVAELLATLQASSQAAAEVDVAVAKPDLTSALREIRAQYESLAAKNLQSAEEWYKSKFANLNEQAARSTEAIRASREEIHEYRRQLQARTIEIEGLRGANESLERQILELEERHSAEVAGYQDSIGQLESDLRNTKSEMARHLREYQDLLNVKMALDIEIAAYRKLLEGEETRFSTGGLSISGLNPLPNPSYLLPPRILSSTASKVSSAGLSLKKEEEEEEEEASKEVSKKTSKVGEGFEETLGEAVISTKKTGKSATEESTSSSQKM
B6: Reticulon-4 (protein, UniProt Q99P72 1-1162)
chain: MEDIDQSSLVSSSADSPPRPPPAFKYQFVTEPEDEEDEEDEEEEEDDEDLEELEVLERKPAAGLSAAPVPPAAAPLLDFSSDSVPPAPRGPLPAAPPTAPERQPSWERSPAASAPSLPPAAAVLPSKLPEDDEPPARPPAPAGASPLAEPAAPPSTPAAPKRRGSGSVDETLFALPAASEPVIPSSAEKIMDLKEQPGNTVSSGQEDFPSVLFETAASLPSLSPLSTVSFKEHGYLGNLSAVASTEGTIEETLNEASRELPERATNPFVNRESAEFSVLEYSEMGSSFNGSPKGESAMLVENTKEEVIVRSKDKEDLVCSAALHNPQESPATLTKVVKEDGVMSPEKTMDIFNEMKMSVVAPVREEYADFKPFEQAWEVKDTYEGSRDVLAARANMESKVDKKCFEDSLEQKGHGKDSESRNENASFPRTPELVKDGSRAYITCDSFSSATESTAANIFPVLEDHTSENKTDEKKIEERKAQIITEKTSPKTSNPFLVAIHDSEADYVTTDNLSKVTEAVVATMPEGLTPDLVQEACESELNEATGTKIAYETKVDLVQTSEAIQESIYPTAQLCPSFEEAEATPSPVLPDIVMEAPLNSLLPSTGASVAQPSASPLEVPSPVSYDGIKLEPENPPPYEEAMSVALKTSDSKEEIKEPESFNAAAQEAEAPYISIACDLIKETKLSTEPSPEFSNYSEIAKFEKSVPDHCELVDDSSPESEPVDLFSDDSIPEVPQTQEEAVMLMKESLTEVSETVTQHKHKERLSASPQEVGKPYLESFQPNLHITKDAASNEIPTLTKKETISLQMEEFNTAIYSNDDLLSSKEDKMKESETFSDSSPIEIIDEFPTFVSAKDDSPKEYTDLEVSNKSEIANVQSGANSLPCSELPCDLSFKNTYPKDEAHVSDEFSKSRSSVSKVPLLLPNVSALESQIEMGNIVKPKVLTKEAEEKLPSDTEKEDRSLTAVLSAELNKTSVVDLLYWRDIKKTGVVFGASLFLLLSLTVFSIVSVTAYIALALLSVTISFRIYKGVIQAIQKSDEGHPFRAYLESEVAISEELVQKYSNSALGHVNSTIKELRRLFLVDDLVDSLKFAVLMWVFTYVGALFNGLTLLILALISLFSIPVIYERHQAQIDHYLGLANKSVKDAMAKIQAKIPGLKRKAE

Each binder was assayed against T1, Neuronal cell adhesion molecule 2 (NCAM2) (mouse (endogenous in cerebral cortex)) (UniProt O35136) (assay: affinity purification with mass spectrometry; NCAM2 precipitated from the membrane fraction (lysis buffer with 1% Triton X-100, 150 mM NaCl) of postnatal mouse cortex with magnetic beads conjugated with anti-NCAM2.1 (EB06991) or anti-NCAM2 (AF778), o/n at 4 °C; urea elution, trypsin, LC-MS/MS, FDR ≤ 0.01%; control: non-conjugated beads).
T1 sequence: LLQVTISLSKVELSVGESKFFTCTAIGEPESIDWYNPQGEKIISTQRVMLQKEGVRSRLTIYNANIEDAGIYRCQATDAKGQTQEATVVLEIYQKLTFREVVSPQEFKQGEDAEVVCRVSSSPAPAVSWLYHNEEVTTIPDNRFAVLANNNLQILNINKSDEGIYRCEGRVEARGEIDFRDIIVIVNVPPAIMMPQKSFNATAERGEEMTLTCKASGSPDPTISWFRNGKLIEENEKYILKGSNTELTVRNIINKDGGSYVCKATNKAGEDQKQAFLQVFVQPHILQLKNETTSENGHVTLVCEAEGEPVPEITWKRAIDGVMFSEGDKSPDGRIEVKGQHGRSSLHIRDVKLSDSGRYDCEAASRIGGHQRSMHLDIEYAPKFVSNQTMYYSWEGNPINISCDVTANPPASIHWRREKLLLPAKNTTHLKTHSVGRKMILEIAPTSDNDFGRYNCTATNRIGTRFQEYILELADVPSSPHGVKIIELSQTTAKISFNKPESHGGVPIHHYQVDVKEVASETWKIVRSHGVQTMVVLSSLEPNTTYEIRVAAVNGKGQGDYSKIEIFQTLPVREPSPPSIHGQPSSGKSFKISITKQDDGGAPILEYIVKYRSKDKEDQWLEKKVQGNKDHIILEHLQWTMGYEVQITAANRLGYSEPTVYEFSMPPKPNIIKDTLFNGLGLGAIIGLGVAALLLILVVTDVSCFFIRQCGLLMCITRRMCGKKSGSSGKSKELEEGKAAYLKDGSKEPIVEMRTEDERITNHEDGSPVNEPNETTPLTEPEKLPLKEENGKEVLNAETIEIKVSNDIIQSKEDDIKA
With B1 the binding was “binds”. In the case of B2, the binding is reported as “binds”. With B3 the binding was “binds”. With B4 the binding was “binds”. B5 was tested, and the binding was “binds”.

Each binder was assayed against T2, Neuronal cell adhesion molecule 2, isoform NCAM2.1 (mouse (endogenous in cerebral cortex)) (UniProt O35136) in the same assay as above.
T2 sequence: T1 sequence
B6 was tested, and the binding was “binds”.

Source: PMC8304497
